No constants are given. Whether binding was seen depends on the method and setting. For some of these results: In cells and extracts the contact can be indirect. Some binding calls cover weakened binding; strength is not graded here.
Assays:
[1] = target: AP-2 complex subunit mu (AP2M), endogenous in mouse hippocampus (mouse (endogenous in hippocampus)) (UniProt P84091); assay: co-IP
[2] = target: AP-2 complex subunit mu (AP2M), endogenous in MG87.TRKB cells (mouse (endogenous in MG87.TRKB 3T3 fibroblasts)) (UniProt P84091); assay: ELISA

By UniProt entry, the sequences of proteins in these tests, tags left out. Residues count along the entry.
UniProt P84091: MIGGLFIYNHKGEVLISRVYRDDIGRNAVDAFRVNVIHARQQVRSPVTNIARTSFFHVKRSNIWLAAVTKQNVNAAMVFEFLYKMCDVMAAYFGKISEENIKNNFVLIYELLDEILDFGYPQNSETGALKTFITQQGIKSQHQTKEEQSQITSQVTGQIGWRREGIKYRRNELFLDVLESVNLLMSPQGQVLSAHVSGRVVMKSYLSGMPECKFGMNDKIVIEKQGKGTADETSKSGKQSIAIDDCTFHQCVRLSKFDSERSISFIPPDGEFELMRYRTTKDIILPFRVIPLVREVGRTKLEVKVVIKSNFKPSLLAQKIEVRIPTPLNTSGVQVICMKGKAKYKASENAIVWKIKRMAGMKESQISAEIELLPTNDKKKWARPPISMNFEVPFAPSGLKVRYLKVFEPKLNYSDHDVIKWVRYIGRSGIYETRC
UniProt P15209, residues 32-821: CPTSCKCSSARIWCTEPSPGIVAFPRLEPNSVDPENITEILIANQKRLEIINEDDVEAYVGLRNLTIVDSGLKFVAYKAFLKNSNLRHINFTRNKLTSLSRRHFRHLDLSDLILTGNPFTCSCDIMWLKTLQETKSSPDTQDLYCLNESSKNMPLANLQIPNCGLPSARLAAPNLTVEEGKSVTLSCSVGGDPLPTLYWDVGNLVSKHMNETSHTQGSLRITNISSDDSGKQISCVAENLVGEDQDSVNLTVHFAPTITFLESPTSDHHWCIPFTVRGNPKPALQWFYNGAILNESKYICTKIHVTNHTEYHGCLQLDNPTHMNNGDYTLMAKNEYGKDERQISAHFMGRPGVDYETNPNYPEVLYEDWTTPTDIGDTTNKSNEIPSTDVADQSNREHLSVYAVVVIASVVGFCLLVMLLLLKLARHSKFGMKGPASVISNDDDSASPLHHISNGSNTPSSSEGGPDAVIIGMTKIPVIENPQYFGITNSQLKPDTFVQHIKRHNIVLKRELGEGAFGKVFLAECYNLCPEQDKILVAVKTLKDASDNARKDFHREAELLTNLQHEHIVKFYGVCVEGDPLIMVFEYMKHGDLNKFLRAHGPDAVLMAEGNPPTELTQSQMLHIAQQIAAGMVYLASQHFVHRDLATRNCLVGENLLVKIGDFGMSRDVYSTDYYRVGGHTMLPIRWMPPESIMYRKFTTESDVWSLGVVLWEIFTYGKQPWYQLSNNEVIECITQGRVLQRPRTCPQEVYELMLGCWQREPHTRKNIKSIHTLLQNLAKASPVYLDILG

Row | binding [1] | binding [2] | Molecule
1 | binds | – | TRKB (tropomyosin-related kinase B), BDNF receptor, endogenous in mouse hippocampus (from UniProt P15209 32-821)
2 | – | binds | TRKB C-terminal peptide, phosphorylated (last 26 amino acids of rat TRKB, pY816) (from UniProt Q63604 796-821)
3 | – | binds | TRKB C-terminal peptide, control (last 26 amino acids of rat TRKB) (from UniProt Q63604 796-821)
4 | – | binds | RKNIKNIHTLLQNLAKASPVALDILG (peptide, UniProt Q63604 796-821, biotin on the N-terminus) [TRKB C-terminal peptide, Y816A (last 26 amino acids of rat TRKB)]

From publication doi:10.1101/591909
